Laboratory results taken from the supplement of paper PMC10849652.
The list shows a part of the results.

The chains behind the UniProt entries cited, without tags or fusion partners. Where a name states a change or a piece, a line headed by the entry shows the natural chain unless it says otherwise.
UniProt Q8WWC4: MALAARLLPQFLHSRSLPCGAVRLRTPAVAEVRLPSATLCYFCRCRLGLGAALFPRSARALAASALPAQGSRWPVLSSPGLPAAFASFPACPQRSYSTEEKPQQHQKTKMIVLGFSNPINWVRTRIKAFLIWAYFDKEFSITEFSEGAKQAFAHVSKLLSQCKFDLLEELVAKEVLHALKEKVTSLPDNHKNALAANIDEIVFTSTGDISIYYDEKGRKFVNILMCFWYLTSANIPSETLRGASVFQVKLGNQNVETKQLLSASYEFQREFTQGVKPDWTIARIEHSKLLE
UniProt P31153, whole entry, looked up: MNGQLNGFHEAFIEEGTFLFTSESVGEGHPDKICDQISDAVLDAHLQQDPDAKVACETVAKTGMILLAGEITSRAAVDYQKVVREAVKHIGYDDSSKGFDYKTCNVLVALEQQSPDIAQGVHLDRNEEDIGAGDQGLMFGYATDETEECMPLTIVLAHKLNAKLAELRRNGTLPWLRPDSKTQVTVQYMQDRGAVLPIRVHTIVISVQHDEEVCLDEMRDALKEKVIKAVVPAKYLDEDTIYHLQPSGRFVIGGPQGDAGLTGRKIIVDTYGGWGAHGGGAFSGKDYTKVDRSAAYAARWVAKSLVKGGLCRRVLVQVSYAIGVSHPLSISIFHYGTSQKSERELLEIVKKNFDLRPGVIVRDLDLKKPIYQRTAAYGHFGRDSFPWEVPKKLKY
UniProt Q96S90: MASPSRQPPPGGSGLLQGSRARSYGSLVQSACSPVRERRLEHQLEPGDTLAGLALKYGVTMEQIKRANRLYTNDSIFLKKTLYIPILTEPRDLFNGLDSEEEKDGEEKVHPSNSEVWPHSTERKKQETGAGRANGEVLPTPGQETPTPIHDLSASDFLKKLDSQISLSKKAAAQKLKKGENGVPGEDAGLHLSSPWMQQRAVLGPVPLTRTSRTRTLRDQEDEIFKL
UniProt O43318: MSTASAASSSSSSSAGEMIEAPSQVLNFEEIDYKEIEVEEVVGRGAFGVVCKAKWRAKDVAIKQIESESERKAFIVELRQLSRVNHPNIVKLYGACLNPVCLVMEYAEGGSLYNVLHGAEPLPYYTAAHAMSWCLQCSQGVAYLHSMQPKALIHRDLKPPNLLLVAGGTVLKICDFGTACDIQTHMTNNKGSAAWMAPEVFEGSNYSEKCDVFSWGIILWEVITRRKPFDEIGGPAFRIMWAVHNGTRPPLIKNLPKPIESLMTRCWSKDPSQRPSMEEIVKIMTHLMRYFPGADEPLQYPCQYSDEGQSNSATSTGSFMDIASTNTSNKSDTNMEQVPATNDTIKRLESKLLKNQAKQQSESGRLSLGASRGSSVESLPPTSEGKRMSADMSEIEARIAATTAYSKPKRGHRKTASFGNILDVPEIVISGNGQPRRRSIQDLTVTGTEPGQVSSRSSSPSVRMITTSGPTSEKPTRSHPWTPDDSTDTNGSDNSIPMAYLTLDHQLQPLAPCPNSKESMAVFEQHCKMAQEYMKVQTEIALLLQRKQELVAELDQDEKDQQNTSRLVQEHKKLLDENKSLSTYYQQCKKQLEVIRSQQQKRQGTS
UniProt P45985: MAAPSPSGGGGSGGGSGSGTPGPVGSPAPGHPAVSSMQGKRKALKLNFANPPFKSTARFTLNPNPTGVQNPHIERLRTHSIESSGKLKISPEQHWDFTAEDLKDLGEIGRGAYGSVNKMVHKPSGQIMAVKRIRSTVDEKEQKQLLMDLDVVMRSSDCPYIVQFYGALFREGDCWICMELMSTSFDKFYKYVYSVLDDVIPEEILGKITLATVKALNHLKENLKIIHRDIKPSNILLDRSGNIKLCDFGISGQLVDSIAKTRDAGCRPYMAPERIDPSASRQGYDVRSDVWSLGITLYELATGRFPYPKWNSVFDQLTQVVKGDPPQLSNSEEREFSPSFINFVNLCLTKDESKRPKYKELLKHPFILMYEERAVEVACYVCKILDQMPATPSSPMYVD
UniProt Q9NTJ4: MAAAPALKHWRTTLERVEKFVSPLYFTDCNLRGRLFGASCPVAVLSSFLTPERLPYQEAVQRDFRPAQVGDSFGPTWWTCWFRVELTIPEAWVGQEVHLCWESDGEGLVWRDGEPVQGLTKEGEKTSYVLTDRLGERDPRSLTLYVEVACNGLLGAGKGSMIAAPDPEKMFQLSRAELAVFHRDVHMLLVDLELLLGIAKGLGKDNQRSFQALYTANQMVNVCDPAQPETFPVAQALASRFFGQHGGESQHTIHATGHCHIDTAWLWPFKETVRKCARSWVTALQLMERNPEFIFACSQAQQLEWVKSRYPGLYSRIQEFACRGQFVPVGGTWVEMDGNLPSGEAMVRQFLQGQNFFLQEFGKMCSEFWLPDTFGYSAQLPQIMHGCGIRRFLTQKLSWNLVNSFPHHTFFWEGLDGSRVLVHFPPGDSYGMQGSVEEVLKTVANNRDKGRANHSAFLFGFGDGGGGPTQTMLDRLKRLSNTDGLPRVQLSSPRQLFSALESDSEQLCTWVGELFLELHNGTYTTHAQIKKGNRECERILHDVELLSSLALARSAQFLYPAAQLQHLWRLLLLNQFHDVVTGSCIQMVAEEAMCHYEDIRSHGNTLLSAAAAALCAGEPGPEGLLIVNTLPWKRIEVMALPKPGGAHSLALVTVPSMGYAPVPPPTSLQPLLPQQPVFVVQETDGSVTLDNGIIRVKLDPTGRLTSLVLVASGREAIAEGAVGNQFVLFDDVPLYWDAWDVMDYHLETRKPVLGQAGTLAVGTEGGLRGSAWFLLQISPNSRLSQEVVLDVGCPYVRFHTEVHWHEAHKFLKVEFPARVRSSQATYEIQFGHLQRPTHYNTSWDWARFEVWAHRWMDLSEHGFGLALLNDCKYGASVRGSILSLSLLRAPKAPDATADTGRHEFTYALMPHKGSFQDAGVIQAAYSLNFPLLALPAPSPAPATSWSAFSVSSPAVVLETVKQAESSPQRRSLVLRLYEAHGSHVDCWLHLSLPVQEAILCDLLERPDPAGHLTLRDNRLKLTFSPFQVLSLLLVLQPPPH
UniProt P49641: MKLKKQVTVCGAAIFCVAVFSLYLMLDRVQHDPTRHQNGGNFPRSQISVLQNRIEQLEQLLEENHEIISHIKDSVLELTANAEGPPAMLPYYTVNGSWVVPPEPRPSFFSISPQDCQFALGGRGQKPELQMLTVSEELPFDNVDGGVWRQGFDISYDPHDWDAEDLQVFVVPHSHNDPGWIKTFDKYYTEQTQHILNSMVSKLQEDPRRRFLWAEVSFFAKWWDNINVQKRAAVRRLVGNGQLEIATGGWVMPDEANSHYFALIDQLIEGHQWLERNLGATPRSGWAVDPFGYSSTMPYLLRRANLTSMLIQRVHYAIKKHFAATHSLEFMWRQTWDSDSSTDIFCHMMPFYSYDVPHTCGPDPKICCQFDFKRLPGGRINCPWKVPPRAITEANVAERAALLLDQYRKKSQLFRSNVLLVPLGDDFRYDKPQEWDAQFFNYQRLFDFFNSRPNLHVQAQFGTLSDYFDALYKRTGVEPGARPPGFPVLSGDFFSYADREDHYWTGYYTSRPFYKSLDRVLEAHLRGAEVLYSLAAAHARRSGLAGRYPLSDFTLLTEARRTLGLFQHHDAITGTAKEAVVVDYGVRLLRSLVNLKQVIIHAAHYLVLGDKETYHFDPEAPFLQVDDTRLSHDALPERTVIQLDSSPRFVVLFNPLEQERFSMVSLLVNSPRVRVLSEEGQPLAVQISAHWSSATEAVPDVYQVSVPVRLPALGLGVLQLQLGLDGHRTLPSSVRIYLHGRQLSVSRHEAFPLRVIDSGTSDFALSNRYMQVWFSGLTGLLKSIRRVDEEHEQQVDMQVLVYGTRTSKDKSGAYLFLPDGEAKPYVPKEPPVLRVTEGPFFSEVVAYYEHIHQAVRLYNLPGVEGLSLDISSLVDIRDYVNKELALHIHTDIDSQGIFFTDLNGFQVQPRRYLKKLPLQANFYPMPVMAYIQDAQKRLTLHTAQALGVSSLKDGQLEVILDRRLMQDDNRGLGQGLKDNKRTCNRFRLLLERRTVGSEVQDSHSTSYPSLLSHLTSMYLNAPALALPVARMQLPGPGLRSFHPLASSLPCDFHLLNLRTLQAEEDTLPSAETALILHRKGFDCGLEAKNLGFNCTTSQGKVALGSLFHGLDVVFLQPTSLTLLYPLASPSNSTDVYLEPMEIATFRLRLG
UniProt P27816: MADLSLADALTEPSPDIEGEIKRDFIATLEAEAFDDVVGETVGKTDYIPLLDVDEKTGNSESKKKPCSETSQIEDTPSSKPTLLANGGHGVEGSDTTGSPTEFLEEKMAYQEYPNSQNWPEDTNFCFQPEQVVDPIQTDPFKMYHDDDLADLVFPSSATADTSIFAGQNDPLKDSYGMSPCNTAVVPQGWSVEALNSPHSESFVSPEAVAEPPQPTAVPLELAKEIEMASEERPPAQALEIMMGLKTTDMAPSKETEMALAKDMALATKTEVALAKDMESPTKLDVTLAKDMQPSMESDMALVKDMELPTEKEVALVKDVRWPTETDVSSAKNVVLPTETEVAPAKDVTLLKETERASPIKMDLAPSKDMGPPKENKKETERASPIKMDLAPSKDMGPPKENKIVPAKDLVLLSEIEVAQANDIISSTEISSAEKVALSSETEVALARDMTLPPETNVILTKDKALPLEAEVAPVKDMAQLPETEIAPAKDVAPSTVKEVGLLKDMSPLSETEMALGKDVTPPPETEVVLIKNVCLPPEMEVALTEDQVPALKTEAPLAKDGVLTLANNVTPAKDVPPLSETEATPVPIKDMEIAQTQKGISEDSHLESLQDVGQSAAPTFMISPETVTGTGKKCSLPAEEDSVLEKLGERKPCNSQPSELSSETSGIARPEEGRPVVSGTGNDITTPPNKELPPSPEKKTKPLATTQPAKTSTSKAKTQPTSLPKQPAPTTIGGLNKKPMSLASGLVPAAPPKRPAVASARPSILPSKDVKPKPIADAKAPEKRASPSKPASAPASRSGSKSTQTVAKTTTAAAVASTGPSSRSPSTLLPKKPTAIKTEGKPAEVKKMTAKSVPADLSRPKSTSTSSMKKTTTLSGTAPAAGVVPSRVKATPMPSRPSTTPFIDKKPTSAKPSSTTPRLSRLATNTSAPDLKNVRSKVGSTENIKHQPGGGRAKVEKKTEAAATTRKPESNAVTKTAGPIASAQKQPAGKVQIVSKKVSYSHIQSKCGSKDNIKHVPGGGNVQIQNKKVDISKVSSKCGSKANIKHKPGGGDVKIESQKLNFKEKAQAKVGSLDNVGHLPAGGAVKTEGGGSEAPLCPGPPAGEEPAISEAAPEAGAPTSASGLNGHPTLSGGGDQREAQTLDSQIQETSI
UniProt P29966: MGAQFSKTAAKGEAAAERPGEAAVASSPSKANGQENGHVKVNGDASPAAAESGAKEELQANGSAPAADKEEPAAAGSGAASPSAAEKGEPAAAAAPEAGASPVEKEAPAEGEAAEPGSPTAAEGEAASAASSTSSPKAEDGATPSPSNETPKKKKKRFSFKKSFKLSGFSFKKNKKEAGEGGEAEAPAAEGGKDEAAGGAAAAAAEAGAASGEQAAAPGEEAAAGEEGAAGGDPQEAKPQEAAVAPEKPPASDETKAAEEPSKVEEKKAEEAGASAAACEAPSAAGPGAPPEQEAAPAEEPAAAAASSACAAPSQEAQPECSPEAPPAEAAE
UniProt Q9H063: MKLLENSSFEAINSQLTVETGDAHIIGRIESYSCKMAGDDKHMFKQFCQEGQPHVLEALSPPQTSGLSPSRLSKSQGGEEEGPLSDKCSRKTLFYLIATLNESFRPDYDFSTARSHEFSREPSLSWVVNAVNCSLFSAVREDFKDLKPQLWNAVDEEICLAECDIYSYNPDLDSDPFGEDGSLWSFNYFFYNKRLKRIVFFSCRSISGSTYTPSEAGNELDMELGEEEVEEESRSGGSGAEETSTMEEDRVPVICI
UniProt P28482, whole entry, looked up: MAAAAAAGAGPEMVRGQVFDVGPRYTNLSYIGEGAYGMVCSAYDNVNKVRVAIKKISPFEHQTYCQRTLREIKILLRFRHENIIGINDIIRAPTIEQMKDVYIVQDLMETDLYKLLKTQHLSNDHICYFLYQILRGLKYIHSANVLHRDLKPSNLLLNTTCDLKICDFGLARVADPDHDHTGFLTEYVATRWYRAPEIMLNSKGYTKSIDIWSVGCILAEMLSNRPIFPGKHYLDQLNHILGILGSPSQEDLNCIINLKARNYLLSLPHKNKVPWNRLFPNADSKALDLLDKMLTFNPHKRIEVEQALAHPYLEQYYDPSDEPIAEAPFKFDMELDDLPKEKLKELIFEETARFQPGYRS

Compound: C1CN(CCC1(CC2=CC=C(C=C2)Cl)N)C3=NC=NC4=C3C=CN4
Assay: log2 fold change, soluble protein after heating vs DMSO (PISA); higher = thermal stabilisation; K562 lysate, 10 uM; active = over 0.2 and 3.5 SD of the protein, either way, in both replicates (recomputed)
Procedure, shortened: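 Thermal stability, expressed as log-two fold change relative to solvent controls, is given from duplicates. Crude K562 extract in PBS pH 7.4 with 1 mM MgCl2, at 1 mg/mL protein, was treated with 10 μM compound for 30 min and heated in aliquots for 3 min across 48°C-58°C. After pooling, adjustment to 0.5% NP-40 at 4°C and centrifugation at 21,000xg for 90 min, supernatant protein was measured by TMTpro 16plex LC-MS/MS with channel sums equalised.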

log2 fold change, inactive:
MAP1S (UniProt Q66K74) 0.005, MACROD1 (UniProt Q9BQ69) -0.002, MAPK14 (UniProt Q16539) 0.015, MAIP1 (UniProt Q8WWC4) 0.039, MAP3K20 isoform 2 (UniProt Q9NYL2) -0.012, LYAR (UniProt Q9NX58) -0.003, MARS (UniProt P56192) 0.002, MAP7D1 (UniProt Q3KQU3) -0.006, MAP2K2 (UniProt P36507) 0.017, LTN1 isoform 3 (UniProt O94822) 0.023, MAT2A (UniProt P31153) 0, LYSMD1 (UniProt Q96S90) -0.046, MAPRE2 (UniProt Q15555) -0.035, MAP3K7 (UniProt O43318) 0.022, LYN (UniProt P07948) -0.042, MAP11 (UniProt Q8WVR3) 0.02, MAP2K4 isoform 2 (UniProt P45985) -0.058, MAN2C1 isoform 4 (UniProt Q9NTJ4) 0.061, MAN2A2 (UniProt P49641) -0.024, LZTFL1 (UniProt Q9NQ48) -0.016, MAPK8 isoform 3 (UniProt P45983) 0, MACF1 isoform 3 (UniProt Q9UPN3) -0.007, MAN2A1 (UniProt Q16706) 0.043, MAN2B1 (UniProt O00754) -0.045, MAP2K1 (UniProt Q02750) 0.077, MAP4 isoform 5 (UniProt P27816) 0.026, MAD2L2 (UniProt Q9UI95) 0.102, MAP3K20 (UniProt Q9NYL2) 0.023, MARCKS (UniProt P29966) 0.082, MAP4 (UniProt E7EVA0) 0.061, MAF1 (UniProt Q9H063) 0.039, MAPK1 (UniProt P28482) 0.009
